# Test results reported in paper PMC7819943, “Rice protein-binding microarrays: a tool to detect cis-acting elements near promoter regions in rice”.
# The list shows a part of the results.
# Target: T1, OsSMF1 (Oryza sativa, UniProt Q6ZLB0 1-436)
# T1 sequence: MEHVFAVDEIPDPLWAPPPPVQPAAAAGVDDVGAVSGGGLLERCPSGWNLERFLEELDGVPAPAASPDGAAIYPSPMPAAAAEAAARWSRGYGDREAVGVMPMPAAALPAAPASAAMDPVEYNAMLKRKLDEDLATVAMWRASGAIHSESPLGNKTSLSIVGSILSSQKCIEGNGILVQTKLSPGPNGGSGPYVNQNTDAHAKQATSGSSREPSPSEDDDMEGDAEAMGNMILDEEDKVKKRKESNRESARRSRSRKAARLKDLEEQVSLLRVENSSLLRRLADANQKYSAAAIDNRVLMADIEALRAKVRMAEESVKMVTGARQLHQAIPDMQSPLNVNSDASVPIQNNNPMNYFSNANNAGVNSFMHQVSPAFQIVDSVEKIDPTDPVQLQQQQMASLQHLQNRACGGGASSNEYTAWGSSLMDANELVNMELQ
# Experiment: protein-binding microarray (RPBM); PBS, 2% BSA, 51.3 ng/ul salmon testes DNA, 50 uM zinc acetate, 200 nM TF, 25 C, 1 h; high values mean tight binding
# Conditions: protein: recombinant; tags: N-terminal polyhistidine and DsRed monomer fusion (pET32a); chain copies: 2; label: CyDye5-dUTP incorporated in the synthesized complementary strand; 3' TTTTT single-stranded linker to array surface; dsDNA, one strand shown
# Outline: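 For the binding signal, per-feature fluorescence intensity was read in arbitrary units on an Axon 4000B scanner. Before scanning, a 2% BSA-blocked custom Agilent array made double-stranded with Cy5-dUTP was washed after 1 h at 25 °C with 200 nM protein and 50 µM zinc acetate. The proteins were Ni–NTA-purified transcription factors with N-terminal polyhistidine and DsRed fusions, expressed in E. coli BL21-CodonPlus.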
row,Sequence,binding signal
1,CGCTGACTCAAACCGCCACGTCAGACAAATCGGGGTCAAACGGAGTCACCTAGTGCAG,16000 fluorescence intensity (a.u.)
2,AGCTCGGTCACCTGACGCGAACGACGCCGACGTGGACGTACGGAGTCACCTAGTGCAG,10800 fluorescence intensity (a.u.)
3,AAATTTATTGTTTGGCTGGAAGACGTGGGGTTTTAAGAGGCGGAGTCACCTAGTGCAG,3280 fluorescence intensity (a.u.)
4,AAGCTAAAAGGGGATTTATACTTGAGATGGTGTGGTCACTCGGAGTCACCTAGTGCAG,3620 fluorescence intensity (a.u.)
5,GCGCACGCGAAATCCGGCCGACGACGACGACGTGACGTCACGGAGTCACCTAGTGCAG,11000 fluorescence intensity (a.u.)
6,GCTTGATCATCGGCCTCAACACCCTGCATATGTGTATTCTCGGAGTCACCTAGTGCAG,3730 fluorescence intensity (a.u.)
7,ACTTGTGGTATGTTATGCGGTAGTCATCCAAACAATACACCGGAGTCACCTAGTGCAG,7080 fluorescence intensity (a.u.)
8,GGCGAGTGTTCAAAAGCAAAGAGGCCACAATGTCGTATCTCGGAGTCACCTAGTGCAG,3410 fluorescence intensity (a.u.)
9,CATCCTGGACTGGACTGGATTCTTCTTCCCTTCCCCAGCGCGGAGTCACCTAGTGCAG,3590 fluorescence intensity (a.u.)
10,CTGTATATATATAGCACCTGCAACGAGCCAGGATCGATCACGGAGTCACCTAGTGCAG,3230 fluorescence intensity (a.u.)
11,ACTTTCCTCCACTATTGCTCGACTGAGCCACGCTGATGGCCGGAGTCACCTAGTGCAG,3320 fluorescence intensity (a.u.)
12,GAAATATCCCCTTGTCATCTGAAGCATATCCTGCTGGGTTCGGAGTCACCTAGTGCAG,5540 fluorescence intensity (a.u.)
13,GGCCCCACGTACCATCCTACCCCACCTGTCAGCGTGCGTACGGAGTCACCTAGTGCAG,5120 fluorescence intensity (a.u.)
14,CCGCTGAGCCTGAGTCTCCTGGTCCACGTACACCCGTGGACGGAGTCACCTAGTGCAG,6550 fluorescence intensity (a.u.)
15,AATGGGATAGGCGCTTCCCGTGGGCGATGACGCCTTTCGCCGGAGTCACCTAGTGCAG,3580 fluorescence intensity (a.u.)
16,ACGGCATCGATCGATCGCGGGCGACGTGGCTGAGTGGCGGCGGAGTCACCTAGTGCAG,6420 fluorescence intensity (a.u.)
17,CGGTTGCTGCTGAAGCTTACCAGACTTGTCCCAAGTCTGACGGAGTCACCTAGTGCAG,3960 fluorescence intensity (a.u.)
18,TCCTTGCTCGCGAATCCACTCGCGCGTGCGTGGGCCCCACCGGAGTCACCTAGTGCAG,3310 fluorescence intensity (a.u.)
19,GGAGCTATTAAGAAGCTTACGTGGAGGAGAGATGTAATAACGGAGTCACCTAGTGCAG,3400 fluorescence intensity (a.u.)
20,TGCGCGCCTTGGCCTCTCTTCTGTCACCGCGATGTCTCGCCGGAGTCACCTAGTGCAG,3660 fluorescence intensity (a.u.)
21,CGTGGTCTCTGAACCCGCGCGCGCGTGCCACCCGCGCATGCGGAGTCACCTAGTGCAG,3180 fluorescence intensity (a.u.)

row,Sequence,binding signal
1,AGTTACAACTACTCGATCAGCATCGCCATTGCTGCATCACCGGAGTCACCTAGTGCAG,4060 fluorescence intensity (a.u.)
2,ACTCCTCGGATAGGCGATGGCGGCCGCGGTCACCGCGCCACGGAGTCACCTAGTGCAG,3370 fluorescence intensity (a.u.)
3,ACGGAGGGAGGAGGGAGTATTAATATTTAGGGCATGTTTACGGAGTCACCTAGTGCAG,30800 fluorescence intensity (a.u.)
4,AAATCGTCGAGGATTTCTAGCCCCAGCTGGGGCCGTGACGCGGAGTCACCTAGTGCAG,4330 fluorescence intensity (a.u.)
5,CGCCTACACCTTTGCCACGCAGCCCAAAACGAGTCCACCTCGGAGTCACCTAGTGCAG,7650 fluorescence intensity (a.u.)
6,GTACTGCACGGTAGTATACACGTAAGCCCCAAGTAATTACCGGAGTCACCTAGTGCAG,9470 fluorescence intensity (a.u.)
7,ACCACCACGGACATCGTCTTACCACCAAGCTGACTCCCGGCGGAGTCACCTAGTGCAG,3890 fluorescence intensity (a.u.)
8,AGAGGTGTGGGAATTCCGTGGCAACTAATCTCATGGCCCCCGGAGTCACCTAGTGCAG,3360 fluorescence intensity (a.u.)
9,GGTGGTGTTGACAGCCCAAGGCCCAAGTGTCACACGCCTTCGGAGTCACCTAGTGCAG,3990 fluorescence intensity (a.u.)
10,TTGCTGTGTTGGCTAGTGATTCTTCTTCTTCTTACCCAAGCGGAGTCACCTAGTGCAG,4100 fluorescence intensity (a.u.)
11,AAGAGGAGAGGGAAGAAGACAGGAGAAAGAAGGAAGAAAACGGAGTCACCTAGTGCAG,29300 fluorescence intensity (a.u.)
12,ATATATTCTATGTGGTCTGCCCACACGCAAGCATGAGCTCCGGAGTCACCTAGTGCAG,3740 fluorescence intensity (a.u.)
13,AGCTGCATGAATCAGCAAGAACGCCAGGGCCGCTGTGCCGCGGAGTCACCTAGTGCAG,3780 fluorescence intensity (a.u.)
14,TGTTTCCCCATATATACTTCCACTTATCAGCAGTGTGATCCGGAGTCACCTAGTGCAG,3300 fluorescence intensity (a.u.)
15,ATTATAGCGACCTTATCCTCTCCACCGTCCACGCGCGAGCCGGAGTCACCTAGTGCAG,3330 fluorescence intensity (a.u.)
16,TGGCTCTCGTACGTAGGTGATGTGTATATATGTATATGTTCGGAGTCACCTAGTGCAG,5190 fluorescence intensity (a.u.)
17,GCCACCAAGTAAATCGTGACTCATCTTACCAATCAACGACCGGAGTCACCTAGTGCAG,15800 fluorescence intensity (a.u.)
18,GCCTTCGCTCTTCGTCGGGTCAGCTCCTGCCTTCCAAAGTCGGAGTCACCTAGTGCAG,3360 fluorescence intensity (a.u.)
19,TCCAGTGGCGGTTACGTAAACGCCTGGCCTCCTGTTATTCCGGAGTCACCTAGTGCAG,3380 fluorescence intensity (a.u.)
20,ACCCGTCACCAACCTAGCTCGCGAGACAGCTCATCATTTGCGGAGTCACCTAGTGCAG,5230 fluorescence intensity (a.u.)
21,GCCAGACCGCCCACATACCTGTGGTCTGACCGGCCCTGTGCGGAGTCACCTAGTGCAG,3170 fluorescence intensity (a.u.)

# Some of the entries so far, tab-delimited.
row	Sequence	binding signal
4	AAATCGTCGAGGATTTCTAGCCCCAGCTGGGGCCGTGACGCGGAGTCACCTAGTGCAG	4330 fluorescence intensity (a.u.)
5	CGCCTACACCTTTGCCACGCAGCCCAAAACGAGTCCACCTCGGAGTCACCTAGTGCAG	7650 fluorescence intensity (a.u.)
